Results are given in words; binding and its absence hold for the method and conditions named. In cells and extracts the contact can be indirect. Some entries that bind do so weakly or less than the wild type. For some assays here: Sequences can lack the tags named with a protein.
Assays:
Flag-DVL1 = molecular target: T1, Flag-DVL1 (UniProt O14640); experiment: co-IP; HCT-8/VCR cells cotransfected with pcDNA3.1-Flag-DVL and pcDNA3.1-HA-β-catenin for 72 h, nuclear fraction; IP with anti-Flag, blot with anti-HA; IgG as negative control
T1 sequence: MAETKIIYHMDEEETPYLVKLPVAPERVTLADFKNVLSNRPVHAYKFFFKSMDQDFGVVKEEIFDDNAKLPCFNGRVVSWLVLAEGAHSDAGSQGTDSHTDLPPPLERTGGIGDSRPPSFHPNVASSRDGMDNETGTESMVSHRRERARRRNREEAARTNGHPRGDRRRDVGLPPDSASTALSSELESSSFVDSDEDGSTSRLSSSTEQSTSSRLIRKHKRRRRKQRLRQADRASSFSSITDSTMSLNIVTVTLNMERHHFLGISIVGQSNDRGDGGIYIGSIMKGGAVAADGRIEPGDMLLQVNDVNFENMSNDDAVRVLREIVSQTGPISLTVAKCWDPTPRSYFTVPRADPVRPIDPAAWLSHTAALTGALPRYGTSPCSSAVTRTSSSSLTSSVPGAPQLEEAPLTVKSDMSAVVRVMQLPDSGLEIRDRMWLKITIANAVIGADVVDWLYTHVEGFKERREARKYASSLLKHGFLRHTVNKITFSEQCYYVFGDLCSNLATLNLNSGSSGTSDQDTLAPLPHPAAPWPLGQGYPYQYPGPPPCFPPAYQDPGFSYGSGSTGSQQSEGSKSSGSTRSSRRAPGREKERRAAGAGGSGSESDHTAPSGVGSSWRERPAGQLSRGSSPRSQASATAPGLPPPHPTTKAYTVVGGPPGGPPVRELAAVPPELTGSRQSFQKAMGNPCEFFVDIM

Sequences of proteins named here, by UniProt entry; tags and fusion partners are left off.
UniProt P35222: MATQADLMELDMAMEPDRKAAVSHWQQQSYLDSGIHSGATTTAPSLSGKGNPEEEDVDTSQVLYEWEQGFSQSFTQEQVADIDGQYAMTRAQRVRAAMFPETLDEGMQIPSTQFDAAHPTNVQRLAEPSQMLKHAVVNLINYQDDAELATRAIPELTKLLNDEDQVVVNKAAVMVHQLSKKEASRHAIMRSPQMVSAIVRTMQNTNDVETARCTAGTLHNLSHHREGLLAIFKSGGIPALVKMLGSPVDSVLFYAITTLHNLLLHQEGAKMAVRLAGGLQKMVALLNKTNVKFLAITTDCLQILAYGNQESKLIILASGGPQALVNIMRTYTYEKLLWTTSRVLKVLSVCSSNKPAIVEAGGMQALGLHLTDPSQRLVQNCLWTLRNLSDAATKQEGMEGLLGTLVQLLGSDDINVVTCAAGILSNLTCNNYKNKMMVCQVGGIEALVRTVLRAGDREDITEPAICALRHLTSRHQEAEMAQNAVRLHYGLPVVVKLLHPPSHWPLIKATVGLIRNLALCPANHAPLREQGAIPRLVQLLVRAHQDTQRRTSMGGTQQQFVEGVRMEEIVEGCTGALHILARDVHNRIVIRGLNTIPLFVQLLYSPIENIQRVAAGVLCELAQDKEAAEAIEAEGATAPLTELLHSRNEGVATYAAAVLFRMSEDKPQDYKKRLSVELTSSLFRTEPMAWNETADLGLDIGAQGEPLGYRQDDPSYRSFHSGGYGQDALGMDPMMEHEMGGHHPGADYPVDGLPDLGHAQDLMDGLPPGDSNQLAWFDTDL

Flag-DVL3 (human) = molecular target: T2, Flag-DVL3 (human) (UniProt Q92997); experiment: as above
T2 sequence: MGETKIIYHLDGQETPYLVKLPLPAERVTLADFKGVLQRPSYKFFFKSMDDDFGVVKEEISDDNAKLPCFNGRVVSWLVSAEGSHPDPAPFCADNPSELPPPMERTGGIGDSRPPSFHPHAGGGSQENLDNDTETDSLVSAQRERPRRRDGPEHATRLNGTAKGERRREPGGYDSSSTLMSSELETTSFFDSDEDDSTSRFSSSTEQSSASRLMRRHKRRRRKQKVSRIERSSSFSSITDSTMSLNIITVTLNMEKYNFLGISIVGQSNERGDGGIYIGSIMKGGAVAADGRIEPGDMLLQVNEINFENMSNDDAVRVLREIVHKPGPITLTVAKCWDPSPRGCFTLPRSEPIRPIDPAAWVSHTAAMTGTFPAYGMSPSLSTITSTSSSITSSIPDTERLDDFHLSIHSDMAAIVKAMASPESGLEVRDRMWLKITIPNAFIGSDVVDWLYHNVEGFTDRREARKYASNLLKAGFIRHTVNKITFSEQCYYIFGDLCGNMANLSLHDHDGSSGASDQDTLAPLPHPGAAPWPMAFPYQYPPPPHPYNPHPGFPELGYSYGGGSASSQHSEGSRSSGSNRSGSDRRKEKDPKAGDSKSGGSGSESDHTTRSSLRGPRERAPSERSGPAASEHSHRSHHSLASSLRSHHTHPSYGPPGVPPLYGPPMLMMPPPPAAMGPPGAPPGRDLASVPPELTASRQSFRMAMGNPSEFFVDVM

[1] = molecular target: T3, Dishevelled3 (DVL3), endogenous (human (endogenous in HCT-8/VCR)) (UniProt Q92997); experiment: co-IP; endogenous proteins, total cellular or nuclear fractions of untransfected HCT-8/VCR cells; IP with anti-DVL1, anti-DVL2, anti-DVL3 or anti-β-catenin, protein A+G agarose, 4°C; both directions; IgG as negative control
T3 sequence: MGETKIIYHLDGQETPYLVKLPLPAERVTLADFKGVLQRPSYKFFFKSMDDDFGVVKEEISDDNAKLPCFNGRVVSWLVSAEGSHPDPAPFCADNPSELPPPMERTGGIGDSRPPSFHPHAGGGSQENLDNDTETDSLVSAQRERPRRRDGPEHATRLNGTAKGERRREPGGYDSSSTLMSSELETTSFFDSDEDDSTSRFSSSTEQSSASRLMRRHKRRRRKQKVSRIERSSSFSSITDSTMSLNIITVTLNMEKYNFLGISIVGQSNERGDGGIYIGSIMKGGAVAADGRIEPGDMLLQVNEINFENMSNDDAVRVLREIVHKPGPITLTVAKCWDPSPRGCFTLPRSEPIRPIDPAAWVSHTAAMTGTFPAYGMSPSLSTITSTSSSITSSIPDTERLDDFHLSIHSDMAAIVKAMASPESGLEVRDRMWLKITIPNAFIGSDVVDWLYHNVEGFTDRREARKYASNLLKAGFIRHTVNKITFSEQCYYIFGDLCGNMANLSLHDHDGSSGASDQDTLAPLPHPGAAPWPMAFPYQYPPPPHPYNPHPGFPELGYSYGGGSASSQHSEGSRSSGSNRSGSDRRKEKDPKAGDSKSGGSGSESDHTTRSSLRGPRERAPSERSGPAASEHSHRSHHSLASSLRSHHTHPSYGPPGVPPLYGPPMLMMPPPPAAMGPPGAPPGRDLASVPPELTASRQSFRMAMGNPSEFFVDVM

[2] = molecular target: T4, Dishevelled1 (DVL1), endogenous (human (endogenous in HCT-8/VCR)) (UniProt O14640); experiment: as above
T4 sequence: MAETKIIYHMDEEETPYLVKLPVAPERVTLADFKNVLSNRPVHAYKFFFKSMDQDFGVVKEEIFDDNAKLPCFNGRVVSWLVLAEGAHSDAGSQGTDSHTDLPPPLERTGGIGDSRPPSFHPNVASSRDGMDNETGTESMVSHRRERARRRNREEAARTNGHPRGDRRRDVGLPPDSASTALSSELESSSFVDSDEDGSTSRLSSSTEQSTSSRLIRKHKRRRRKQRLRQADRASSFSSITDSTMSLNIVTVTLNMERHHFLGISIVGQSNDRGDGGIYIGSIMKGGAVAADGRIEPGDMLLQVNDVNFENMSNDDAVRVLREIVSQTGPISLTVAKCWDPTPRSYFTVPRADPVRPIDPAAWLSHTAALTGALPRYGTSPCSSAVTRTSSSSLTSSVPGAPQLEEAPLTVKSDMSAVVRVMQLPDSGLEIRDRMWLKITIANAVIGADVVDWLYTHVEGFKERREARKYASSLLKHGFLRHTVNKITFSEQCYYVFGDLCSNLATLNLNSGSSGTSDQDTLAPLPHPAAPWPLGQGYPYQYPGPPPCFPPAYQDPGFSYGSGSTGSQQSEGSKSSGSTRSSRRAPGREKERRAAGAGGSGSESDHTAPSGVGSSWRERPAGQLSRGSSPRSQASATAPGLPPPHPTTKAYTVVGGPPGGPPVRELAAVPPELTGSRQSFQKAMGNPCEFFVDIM

[3] = molecular target: β-catenin, endogenous (human (endogenous in HCT-8 and HCT-8/VCR)) (UniProt P35222); experiment: as above

With “HA-β-catenin (from UniProt P35222 1-781)” the binding (Flag-DVL1) was “binds” and the binding (Flag-DVL3 (human)) was “binds”.

In the case of “β-catenin, endogenous (from UniProt P35222 1-781)”, the binding [1] is reported as “binds” and the binding [2] is reported as “binds”.

B1: Dishevelled1 (DVL1), endogenous (protein, UniProt O14640 1-695)
chain: MAETKIIYHMDEEETPYLVKLPVAPERVTLADFKNVLSNRPVHAYKFFFKSMDQDFGVVKEEIFDDNAKLPCFNGRVVSWLVLAEGAHSDAGSQGTDSHTDLPPPLERTGGIGDSRPPSFHPNVASSRDGMDNETGTESMVSHRRERARRRNREEAARTNGHPRGDRRRDVGLPPDSASTALSSELESSSFVDSDEDGSTSRLSSSTEQSTSSRLIRKHKRRRRKQRLRQADRASSFSSITDSTMSLNIVTVTLNMERHHFLGISIVGQSNDRGDGGIYIGSIMKGGAVAADGRIEPGDMLLQVNDVNFENMSNDDAVRVLREIVSQTGPISLTVAKCWDPTPRSYFTVPRADPVRPIDPAAWLSHTAALTGALPRYGTSPCSSAVTRTSSSSLTSSVPGAPQLEEAPLTVKSDMSAVVRVMQLPDSGLEIRDRMWLKITIANAVIGADVVDWLYTHVEGFKERREARKYASSLLKHGFLRHTVNKITFSEQCYYVFGDLCSNLATLNLNSGSSGTSDQDTLAPLPHPAAPWPLGQGYPYQYPGPPPCFPPAYQDPGFSYGSGSTGSQQSEGSKSSGSTRSSRRAPGREKERRAAGAGGSGSESDHTAPSGVGSSWRERPAGQLSRGSSPRSQASATAPGLPPPHPTTKAYTVVGGPPGGPPVRELAAVPPELTGSRQSFQKAMGNPCEFFVDIM
For B1, the binding [3] was “binds”.

Source: PMC5777814
